According to patent publication US20090286283A1:
Results are given in words; binding and its absence hold for the method and conditions named. Some binding calls cover weakened binding; strength is not graded here.

Protein sequences, listed by entry. Tags and fused reporters are not part of them. Lines headed by an entry give the natural chain unless they say otherwise; changes in a name come on top.
UniProt A8A271: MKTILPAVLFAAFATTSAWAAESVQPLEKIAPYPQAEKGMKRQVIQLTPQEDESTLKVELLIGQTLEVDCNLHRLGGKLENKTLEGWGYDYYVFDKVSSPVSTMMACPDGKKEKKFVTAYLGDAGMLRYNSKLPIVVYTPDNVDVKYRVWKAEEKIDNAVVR
UniProt P07477: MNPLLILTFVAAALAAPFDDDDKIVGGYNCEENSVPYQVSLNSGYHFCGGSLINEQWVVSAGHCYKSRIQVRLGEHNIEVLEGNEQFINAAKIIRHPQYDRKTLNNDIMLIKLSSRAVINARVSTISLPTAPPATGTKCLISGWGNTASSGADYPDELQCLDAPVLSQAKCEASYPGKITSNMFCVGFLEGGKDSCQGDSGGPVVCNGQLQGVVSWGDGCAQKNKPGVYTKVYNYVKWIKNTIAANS

Target: Ecotin of Sequence ID No. 1 (E. coli) (UniProt A8A271)
Assay: ecotin affinity chromatography, SDS-PAGE

- binding: binds
Substance: mutant human cationic trypsinogen (PRSS1) with the 200th serine changed to alanine (SEQ ID NO: 2) (from UniProt P07477 24-247) (enzyme)
